# Melanoma cell counts after drug treatment

Drugs:
nilutamide, 5 µM: CC1(C)NC(=O)N(c2ccc([N+](=O)[O-])c(C(F)(F)F)c2)C1=O
YM155, 0.002 µM: COCC[n+]1c2c(n(Cc3cnccn3)c1C)C(=O)c1ccccc1C2=O
enzastaurin, 4 µM: Cn1cc(C2=C(c3cn(C4CCN(Cc5ccccn5)CC4)c4ccccc34)C(=O)NC2=O)c2ccccc21
IMD-0354, 0.08 µM: O=C(Nc1cc(C(F)(F)F)cc(C(F)(F)F)c1)c1cc(Cl)ccc1O
dovitinib, 0.5 µM: CN1CCN(c2ccc3nc(-c4c(N)c5c(F)cccc5[nH]c4=O)[nH]c3c2)CC1
PLX4720, 0.4 µM: CCCS(=O)(=O)Nc1ccc(F)c(C(=O)c2c[nH]c3ncc(Cl)cc23)c1F
vismodegib, 5 µM: CS(=O)(=O)c1ccc(C(=O)Nc2ccc(Cl)c(-c3ccccn3)c2)c(Cl)c1
KU-55933, 5 µM: O=c1cc(-c2cccc3c2Sc2ccccc2S3)oc(N2CCOCC2)c1
everolimus, 0.1 µM: CO[C@H]1C[C@@H]2CC[C@@H](C)[C@@](O)(O2)C(=O)C(=O)N2CCCC[C@H]2C(=O)O[C@H]([C@H](C)C[C@@H]2CC[C@@H](OCCO)[C@H](OC)C2)CC(=O)[C@H](C)/C=C(\C)[C@@H](O)[C@@H](OC)C(=O)[C@H](C)C[C@H](C)/C=C/C=C/C=C/1C
ruxolitinib, 5 µM: N#CC[C@H](C1CCCC1)n1cc(-c2ncnc3[nH]ccc23)cn1
AS-252424, 5 µM: O=C1NC(=O)/C(=C/c2ccc(-c3ccc(F)cc3O)o2)S1
BI-D1870, 1 µM: CC(C)CCN1c2nc(Nc3cc(F)c(O)c(F)c3)ncc2N(C)C(=O)C1C (stereo unspecified)
nutlin-3, 0.5 µM: COc1ccc(C2=N[C@@H](c3ccc(Cl)cc3)[C@@H](c3ccc(Cl)cc3)N2C(=O)N2CCNC(=O)C2)c(OC(C)C)c1
decitabine, 0.5 µM: Nc1ncn([C@H]2C[C@H](O)[C@@H](CO)O2)c(=O)n1
midostaurin, 0.4 µM: CO[C@@H]1[C@H](N(C)C(=O)c2ccccc2)C[C@H]2O[C@]1(C)n1c3ccccc3c3c4c(c5c6ccccc6n2c5c31)C(=O)NC4
GW9662, 10 µM: O=C(Nc1ccccc1)c1cc([N+](=O)[O-])ccc1Cl
tipifarnib, 0.05 µM: Cn1cncc1[C@@](N)(c1ccc(Cl)cc1)c1ccc2c(c1)c(-c1cccc(Cl)c1)cc(=O)n2C
AZD7762, 0.1 µM: NC(=O)Nc1cc(-c2cccc(F)c2)sc1C(=O)N[C@H]1CCCNC1
STA-4783, 0.03 µM: CN(NC(=O)CC(=O)NN(C)C(=S)c1ccccc1)C(=S)c1ccccc1
lenalidomide, 5 µM: Nc1cccc2c1CN(C1CCC(=O)NC1=O)C2=O (stereo unspecified)

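Human melanoma cells were exposed to two drugs together for 72 h in 1,536-well plates and read by automated microscopy after fixing and staining. Values are the number of DAPI-stained nuclei as a percentage of the DMSO control: 100 is no effect, lower means fewer cells. Concentrations were fixed for each drug; these are the higher of two levels. The file gives one value for each pair and line, without errors, so small differences may be noise.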
An unselected part of the screen is shown.
An entry leaves out what has no value listed here.

For GW9662 and PLX4720 the values were WM3619: 51.0; COLO 792: 89.4; COLO 800: 73.2; C32: 82.2; WM451Lu: 50.7; COLO 829: 89.2.
For KU-55933 and lenalidomide the values were WM3619: 77.2; COLO 792: 89.7; COLO 800: 71.4; C32: 111; WM451Lu: 91.7; COLO 829: 101.
For ruxolitinib and IMD-0354 the values were WM3619: 72.3; COLO 792: 69.1; COLO 800: 101; C32: 101; WM451Lu: 75.6; COLO 829: 107.
For vismodegib and ruxolitinib the values were WM3619: 97.1; COLO 792: 81.7; COLO 800: 149; C32: 90.3; WM451Lu: 102; COLO 829: 104.
For enzastaurin and GW9662 the values were WM3619: 70.1; COLO 792: 89.9; COLO 800: 54.4; C32: 76.4; WM451Lu: 87.4; COLO 829: 58.2.
For lenalidomide and AS-252424 the values were WM3619: 97.5; COLO 792: 88.4; COLO 800: 105; C32: 94.7; WM451Lu: 93.9; COLO 829: 80.7.
For enzastaurin and decitabine the values were WM3619: 105; COLO 792: 98.4; COLO 800: 64.5; C32: 103; WM451Lu: 88.7; COLO 829: 82.0.
For dovitinib and AZD7762 the values were WM3619: 33.3; COLO 792: 61.8; COLO 800: 68.3; C32: 72.6; WM451Lu: 84.3; COLO 829: 58.5.
For YM155 and GW9662 the values were WM3619: 53.4; COLO 792: 64.0; COLO 800: 22.8; C32: 91.4; WM451Lu: 39.7; COLO 829: 71.6.
For dovitinib and YM155 the values were WM3619: 74.3; COLO 792: 37.0; COLO 800: 37.1; C32: 63.4; WM451Lu: 31.9; COLO 829: 53.0.
For BI-D1870 and IMD-0354 the values were WM3619: 97.9; COLO 792: 72.6; COLO 800: 63.3; C32: 102; WM451Lu: 92.5; COLO 829: 104.
For tipifarnib and GW9662 the values were WM3619: 33.3; COLO 792: 96.0; COLO 800: 62.6; C32: 88.7; WM451Lu: 56.5; COLO 829: 73.6.
For STA-4783 and nutlin-3 the values were WM3619: 7.6; COLO 792: 24.8; COLO 800: 13.2; C32: 30.3; WM451Lu: 76.3; COLO 829: 39.7.
For everolimus and enzastaurin the values were WM3619: 82.0; COLO 792: 52.0; COLO 800: 34.7; C32: 109; WM451Lu: 79.5; COLO 829: 91.1.
For nutlin-3 and ruxolitinib the values were WM3619: 63.8; COLO 800: 126; C32: 87.7; WM451Lu: 124; COLO 829: 79.1.
For midostaurin and BI-D1870 the values were WM3619: 46.4; COLO 792: 64.5; COLO 800: 52.3; C32: 86.0; WM451Lu: 75.8; COLO 829: 63.4.
For STA-4783 and BI-D1870 the values were WM3619: 14.9; COLO 792: 17.6; COLO 800: 18.5; C32: 11.7; WM451Lu: 80.9; COLO 829: 50.4.
For BI-D1870 and lenalidomide the values were WM3619: 62.7; COLO 792: 73.5; COLO 800: 53.2; C32: 79.0; WM451Lu: 113; COLO 829: 88.9.
For IMD-0354 and nilutamide the values were WM3619: 83.2; COLO 792: 87.6; COLO 800: 85.3; C32: 77.8; WM451Lu: 89.7; COLO 829: 86.8.
For nutlin-3 and IMD-0354 the values were WM3619: 62.8; COLO 792: 93.7; COLO 800: 70.3; C32: 85.8; WM451Lu: 121; COLO 829: 58.6.
For vismodegib and STA-4783 the values were WM3619: 6.3; COLO 792: 22.4; COLO 800: 7.4; C32: 24.0; WM451Lu: 87.8; COLO 829: 55.5.
For midostaurin and STA-4783 the values were WM3619: 8.0; COLO 792: 27.9; COLO 800: 18.5; C32: 31.7; WM451Lu: 92.4; COLO 829: 38.2.
For everolimus and IMD-0354 the values were WM3619: 53.9; COLO 792: 46.7; COLO 800: 87.1; C32: 83.4; WM451Lu: 77.9; COLO 829: 89.7.
For decitabine and AS-252424 the values were WM3619: 67.1; COLO 792: 77.7; COLO 800: 69.4; C32: 91.6; WM451Lu: 73.7; COLO 829: 68.0.
For KU-55933 and vismodegib the values were WM3619: 107; COLO 792: 112; COLO 800: 65.1; C32: 107; WM451Lu: 91.7; COLO 829: 92.5.
For everolimus and AZD7762 the values were WM3619: 29.1; COLO 792: 38.6; COLO 800: 76.2; C32: 49.2; WM451Lu: 61.2; COLO 829: 56.2.
For dovitinib and AS-252424 the values were WM3619: 75.7; COLO 792: 67.2; COLO 800: 83.9; C32: 97.7; WM451Lu: 74.1; COLO 829: 48.8.
For KU-55933 and nilutamide the values were WM3619: 63.0; COLO 792: 94.4; COLO 800: 97.7; C32: 115; WM451Lu: 132; COLO 829: 105.

The last 2 entries again:

{"drugs": "dovitinib and AS-252424", "WM3619": 75.7, "COLO 792": 67.2, "COLO 800": 83.9, "C32": 97.7, "WM451Lu": 74.1, "COLO 829": 48.8}
{"drugs": "KU-55933 and nilutamide", "WM3619": 63.0, "COLO 792": 94.4, "COLO 800": 97.7, "C32": 115, "WM451Lu": 132, "COLO 829": 105}

Data from the primary screen of doi:10.1371/journal.pone.0140310, rounded.